# About 9,100 (2.5%) of roughly 360,000 compounds were called active. Inconclusive results, whose numbers are uncertain, are shown with a selection of clear calls. No stated cut-off is given here; in the data, active means max response below about -50%; inconclusive means no clear call, values can overlap the other calls; inactive means above that.
# The chains behind the UniProt entries cited, without tags or fusion partners.
# UniProt P35462, whole entry, looked up: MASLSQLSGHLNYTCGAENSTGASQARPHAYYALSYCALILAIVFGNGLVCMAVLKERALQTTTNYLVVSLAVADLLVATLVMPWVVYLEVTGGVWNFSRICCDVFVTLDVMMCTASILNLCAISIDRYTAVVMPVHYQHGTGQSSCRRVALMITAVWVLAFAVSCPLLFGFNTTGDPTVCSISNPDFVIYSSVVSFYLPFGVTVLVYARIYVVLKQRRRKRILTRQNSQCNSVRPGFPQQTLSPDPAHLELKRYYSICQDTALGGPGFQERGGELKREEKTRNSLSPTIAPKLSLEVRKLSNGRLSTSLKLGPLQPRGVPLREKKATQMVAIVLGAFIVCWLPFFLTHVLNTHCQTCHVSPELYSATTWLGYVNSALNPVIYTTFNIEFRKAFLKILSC
# Biological target: D(3) dopamine receptor (Homo sapiens) (UniProt P35462)
# Test: qHTS of D3 Dopamine Receptor Antagonist: qHTS
# Conditions: D3R cells, DiscoveRx beta-arrestin luminescence, antagonist mode; hits give low values
# How it was run: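 Cells plated overnight at 1500 cells/well, then exposed to library compounds with dopamine controls for 90 minutes at 37 degrees C. DiscoveRx reagent added for 30–60 minutes at room temperature; luminescence read, quantitative HTS format.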
# On the % scale 0 is the no-effect control and ±100 the full control effect.
row,Compound,"max response, negative = inhibition"
1,O=C1N=C(N2CCOCC2)S/C1=C\c1ccncc1,inconclusive: -45%
2,C/C(=N/OC(=O)c1c(-c2ccccc2Cl)noc1C)c1cnccn1,inactive: 63.6%
3,COc1ccc(C(=O)/C=C/C(=O)N(CC(=O)NC2CCCCC2)Cc2ccccc2)c(O)c1,active: -115%
4,Cc1cccc(NC(=S)NNC(=O)c2ccc3c(c2)OCO3)c1,active: -59.1%
5,Cn1ccnc1C1CCCCN1C(=O)c1cc(COc2ccc(F)cc2F)on1 (stereo unspecified),inactive: -16.3%
6,C[C@]12c3[nH]c4cc(-c5ccco5)ccc4c3CCN1C(=O)[C@@H](CC(=O)NCC13CC4CC(CC(C4)C1)C3)C[C@@H]2C(=O)N1CCOCC1,inactive: -24.9%
7,Cc1cc(C)nc(SCC(=O)Nc2ccc(S(=O)(=O)NCCO)cc2)n1,inactive: 24%
8,O=C1CS(=O)(=O)N(Cc2cccc(F)c2)c2ccc(Br)cc21,inactive: -11.1%
9,CC(=O)Nc1ccc(S(=O)(=O)N(C)CC(=O)OCC(=O)N(C)C2CCS(=O)(=O)C2)cc1 (stereo unspecified),inactive: -23.6%
10,CC(=O)Nc1nc(-c2cccc3ccccc23)cs1,inconclusive: -34%
11,O=C(CN1CCC(n2nnc3cc(F)ccc32)CC1)NNC(=O)c1ccccc1,inconclusive: -34.1%
12,COc1ccc(OCC(=O)Nc2cc(-c3nn(C)c(=O)c4ccccc34)ccc2OC)cc1,active: -62.5%
13,C=CCN1C(=O)OC2(CCCCC2)C1(C)O (stereo unspecified),inactive: 0.135%
14,COC(C[C@@H](O)C[C@H](O)[C@@H](C)OCc1ccccc1)OC,inconclusive: -36.4%
15,Cn1c(=O)[nH]c(=O)c2c1nc(N1CCNCC1)n2Cc1ccccc1,inactive: -17.2%
16,O=S(=O)(Cc1ccccc1)N=Nc1c(O)[nH]c2ccc(Br)cc12,inconclusive: -45.1%
17,O=C(CCCN1C(=O)c2cccc3cccc(c23)C1=O)N1CCN(c2ccccc2)CC1,inconclusive: -31.4%
18,CC1=NC(Nc2nc(C)c3ccccc3n2)=NC(C)(C)C1,inconclusive: -41.9%
19,O=C(OCc1ccccc1)N1CCC2CC1c1cc(/C=C/CCCSc3ncccn3)ccc12 (stereo unspecified),inconclusive: -43.4%

row,Compound,"max response, negative = inhibition"
1,CCOc1cc(C)cc2oc(=O)cc(-c3ccccc3)c12,inactive: 23.4%
2,CCOc1ccc(NC(=S)NC(C)C(c2ccccc2)N2CCN(C)CC2)cc1 (stereo unspecified),inconclusive: -35%
3,Cc1ccc(NC(=S)N(CCCN2CCC(C)CC2)Cc2ccco2)cc1C,active: -51.5%
4,CCCCNC(=O)C1(C)CCCCN1C(=O)c1sccc1C (stereo unspecified),inactive: 0%
5,COC(=O)c1ccc(C2C3=C(Nc4nnnn42)c2ccccc2OC3)cc1 (stereo unspecified),inconclusive: -32.7%
6,COc1ccc(-c2ccc([C@H]3[C@H]4C=CC[C@@H](C)[C@@H]4C(=O)N3Cc3ccccc3)c(F)c2)cc1C,inactive: -21.4%
7,NC(=O)C1(N2CCCCC2)CCN(C(=S)Nc2cccc(Cl)c2)CC1,inconclusive: -33.9%
8,COc1ccc(C2/C=C\CN(C(=O)C3CC3)[C@H](Cc3ccccc3)C(=O)N2Cc2ccc(F)cc2)cc1 (stereo partly specified),inconclusive: -41.5%
9,O=C(N/N=C\c1ccc(O)c([N+](=O)[O-])c1)c1ccccc1-n1cccc1,inconclusive: -44.4%
10,Brc1ccc2c(c1)CN1CCCC1=N2,active: -50.2%
11,O=[N+]([O-])c1ccc(NC(=S)N2CCN(S(=O)(=O)c3ccccc3)CC2)cc1,inconclusive: -30.3%
12,O=C1/C(=C\c2cccnc2)CN(Cc2ccccc2)C/C1=C\c1cccnc1,inconclusive: -43.8%
13,COc1ccc(Nc2ccc3ccccc3c2)cc1,inactive: -3.21%
14,O=C(NCC1CCN(Cc2ccc(Cl)cc2)CC1)C1CCCN(c2ncnc3c2nc2n3CCCCC2)C1 (stereo unspecified),inactive: -26.4%
15,Cc1cccc(C(=O)NCCC(=O)Nc2ccc(F)c([N+](=O)[O-])c2)c1,inconclusive: -34.4%
16,Fc1ccc(NC(=S)NCc2ccccc2Cl)cc1,inactive: 10.4%
17,CC(C)(C)c1ccc(C(=O)NC(=O)COC(=O)CCS(=O)(=O)c2ccccc2)cc1,inconclusive: -32.8%
18,COC(=O)Cc1c(C)c2ccc(OCC(=O)N3CCCC3)c(C)c2oc1=O,inactive: 21%
19,O=C(NN=C1CCCC1)c1n[nH]c2c1CCCC2,inconclusive: -31.3%

# Reformatted with tabs: three of the compounds above.
row	Compound	max response, negative = inhibition
3	Cc1ccc(NC(=S)N(CCCN2CCC(C)CC2)Cc2ccco2)cc1C	active: -51.5%
4	CCCCNC(=O)C1(C)CCCCN1C(=O)c1sccc1C (stereo unspecified)	inactive: 0%
5	COC(=O)c1ccc(C2C3=C(Nc4nnnn42)c2ccccc2OC3)cc1 (stereo unspecified)	inconclusive: -32.7%

# (further entries)

row,Compound,"max response, negative = inhibition"
1,CC(=O)C[C@H]1c2ccccc2S(=O)(=O)N1C1CCCC1,active: -168%
2,O=C(c1cc(Cl)ccc1O)N1CCN(S(=O)(=O)c2cccs2)CC1,inconclusive: -36%
3,COc1ccccc1N(C)S(=O)(=O)c1ccc(Cl)c(C(=O)NCC2(N(C)C)CCCCC2)c1,inactive: -20.5%
4,COc1ccc(Cl)cc1Cn1c(C)c(C(=O)NCc2ccc(F)cc2)sc1=O,inconclusive: -33.5%
5,COc1ccccc1NC(=S)N(Cc1ccco1)Cc1cc2cc(C)ccc2[nH]c1=O,inconclusive: -35.3%
6,COc1ccc(/C=C2/N=C3CCCCCN3C2=O)cc1OC,inactive: -21.7%
7,OCCC1CN(Cc2cccc(C(F)(F)F)c2)CCN1Cc1ccccc1 (stereo unspecified),active: -71.9%
8,Cc1[nH]c2c(Cl)cccc2c(=O)c1CN1CCCCCC1,active: -89.8%
9,CCOc1ccccc1NC(=O)NC1CCCCCCC1,inactive: 0.28%
10,O=S(=O)(CCc1nc2ccccc2o1)c1ccc(Cl)c(Cl)c1,inconclusive: -30.8%
11,CC(C)CC(=O)NC(Nc1ccc([N+](=O)[O-])cc1)C(Cl)(Cl)Cl (stereo unspecified),inactive: -11.4%
12,Cc1cccc2c(=O)cc(C(F)(F)F)[nH]c12,inactive: -10.5%
13,O=C(Nc1cccnc1)c1ccc(CN2CCc3ccccc3C2)cc1,active: -74%
14,CCC1Nc2ncnc(N3CCCCC3)c2N(Cc2ccc(Br)cc2)C1=O (stereo unspecified),active: -53.3%
15,CC(=O)/C=C/c1ccccc1O,inactive: -0.568%
16,CC(C)C(c1nnnn1C1CCCCC1)N1CCOCC1 (stereo unspecified),inactive: -18%
17,CCn1c(C)cc(/C=C2\NC(=O)N(Cc3ccc(Cl)cc3)C2=O)c1C,inactive: -6.48%
18,COc1ccc(C[C@H]2CN3C(=NC[C@@H]3Cc3ccc(O)cc3)N2C[C@H](C)NC(=O)CCC2CCCCC2)cc1,inconclusive: -48.3%

# — PubChem BioAssay AID652054 (National Center for Advancing Translational Sciences (NCATS), 2013)
